# Measurements as given in patent US20150158912A1.
# Results are given in words; binding and its absence hold for the method and conditions named. In cells and extracts the contact can be indirect. Some results given as binding are weak or reduced against the parent protein; the word gives no strength. Where a sequence is shown, tags or fusion partners need not be part of it.
# T1: Act1 in IL-17RB-deficient MEFs reconstituted with Myc-tagged IL-17RB (mouse (cells are mouse embryonic fibroblasts)) (UniProt Q8N7N6)
# T1 sequence (looked up): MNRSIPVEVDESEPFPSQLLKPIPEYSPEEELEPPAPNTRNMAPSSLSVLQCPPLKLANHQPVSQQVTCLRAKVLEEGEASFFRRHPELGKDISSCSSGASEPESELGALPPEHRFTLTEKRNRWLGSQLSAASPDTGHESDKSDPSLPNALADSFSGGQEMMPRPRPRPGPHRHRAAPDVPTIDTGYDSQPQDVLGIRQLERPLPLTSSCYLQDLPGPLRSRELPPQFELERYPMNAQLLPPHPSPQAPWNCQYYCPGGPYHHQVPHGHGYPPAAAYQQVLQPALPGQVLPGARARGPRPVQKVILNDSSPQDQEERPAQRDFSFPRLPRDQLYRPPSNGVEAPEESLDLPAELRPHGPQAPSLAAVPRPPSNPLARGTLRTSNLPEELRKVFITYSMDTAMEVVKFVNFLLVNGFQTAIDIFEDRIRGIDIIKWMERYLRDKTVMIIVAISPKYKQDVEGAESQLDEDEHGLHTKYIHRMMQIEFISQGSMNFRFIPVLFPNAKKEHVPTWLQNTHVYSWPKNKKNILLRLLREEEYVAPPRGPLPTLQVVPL
# B1: Myc-tagged mouse IL-17RB point mutant Q366D (receptor, UniProt Q9JIP3 18-499, looked up)
# chain: REPTIQCGSETGPSPEWMVQHTLTPGDLRDLQVELVKTSVAAEEFSILMNISWILRADASIRLLKATKICVSGKNNMNSYSCVRCNYTEAFQSQTRPSGGKWTFSYVGFPVELSTLYLISAHNIPNANMNEDSPSLSVNFTSPGCLNHVMKYKKQCTEAGSLWDPDITACKKNEKMVEVNFTTNPLGNRYTILIQRDTTLGFSRVLENKLMRTSVAIPVTEESEGAVVQLTPYLHTCGNDCIRREGTVVLCSETSAPIPPDDNRRMLGGWLPLFLVLLVAVWVLAAGIYLTWRQGRSTKTSFPISTMLLPLIKVLVVYPSEICFHHTVCRFTDFLQNYCRSEVILEKWDKKKIAEMGPVQWLTTQKQAADKVVFLLPSDVPTLCDSACGHNEGSARENSQDLFPLAFNLFCSDFSSQTHLHKYLVVYLGGADLKGDYNALSVCPQYHLMKDATAFHTELLKATQSMSVKKRSQACHDSCSPL
# B2: Myc-tagged mouse IL-17RB point mutant W378R (receptor, UniProt Q9JIP3 18-499, looked up)
# chain: REPTIQCGSETGPSPEWMVQHTLTPGDLRDLQVELVKTSVAAEEFSILMNISWILRADASIRLLKATKICVSGKNNMNSYSCVRCNYTEAFQSQTRPSGGKWTFSYVGFPVELSTLYLISAHNIPNANMNEDSPSLSVNFTSPGCLNHVMKYKKQCTEAGSLWDPDITACKKNEKMVEVNFTTNPLGNRYTILIQRDTTLGFSRVLENKLMRTSVAIPVTEESEGAVVQLTPYLHTCGNDCIRREGTVVLCSETSAPIPPDDNRRMLGGWLPLFLVLLVAVWVLAAGIYLTWRQGRSTKTSFPISTMLLPLIKVLVVYPSEICFHHTVCRFTDFLQNYCRSEVILEKWQKKKIAEMGPVQRLTTQKQAADKVVFLLPSDVPTLCDSACGHNEGSARENSQDLFPLAFNLFCSDFSSQTHLHKYLVVYLGGADLKGDYNALSVCPQYHLMKDATAFHTELLKATQSMSVKKRSQACHDSCSPL
# B3: Myc-tagged mouse IL-17RB point mutant S337A (receptor, UniProt Q9JIP3 18-499, looked up)
# chain: REPTIQCGSETGPSPEWMVQHTLTPGDLRDLQVELVKTSVAAEEFSILMNISWILRADASIRLLKATKICVSGKNNMNSYSCVRCNYTEAFQSQTRPSGGKWTFSYVGFPVELSTLYLISAHNIPNANMNEDSPSLSVNFTSPGCLNHVMKYKKQCTEAGSLWDPDITACKKNEKMVEVNFTTNPLGNRYTILIQRDTTLGFSRVLENKLMRTSVAIPVTEESEGAVVQLTPYLHTCGNDCIRREGTVVLCSETSAPIPPDDNRRMLGGWLPLFLVLLVAVWVLAAGIYLTWRQGRSTKTSFPISTMLLPLIKVLVVYPAEICFHHTVCRFTDFLQNYCRSEVILEKWQKKKIAEMGPVQWLTTQKQAADKVVFLLPSDVPTLCDSACGHNEGSARENSQDLFPLAFNLFCSDFSSQTHLHKYLVVYLGGADLKGDYNALSVCPQYHLMKDATAFHTELLKATQSMSVKKRSQACHDSCSPL
# B4: Myc-tagged mouse IL-17RB point mutant E338A (receptor, UniProt Q9JIP3 18-499, looked up)
# chain: REPTIQCGSETGPSPEWMVQHTLTPGDLRDLQVELVKTSVAAEEFSILMNISWILRADASIRLLKATKICVSGKNNMNSYSCVRCNYTEAFQSQTRPSGGKWTFSYVGFPVELSTLYLISAHNIPNANMNEDSPSLSVNFTSPGCLNHVMKYKKQCTEAGSLWDPDITACKKNEKMVEVNFTTNPLGNRYTILIQRDTTLGFSRVLENKLMRTSVAIPVTEESEGAVVQLTPYLHTCGNDCIRREGTVVLCSETSAPIPPDDNRRMLGGWLPLFLVLLVAVWVLAAGIYLTWRQGRSTKTSFPISTMLLPLIKVLVVYPSAICFHHTVCRFTDFLQNYCRSEVILEKWQKKKIAEMGPVQWLTTQKQAADKVVFLLPSDVPTLCDSACGHNEGSARENSQDLFPLAFNLFCSDFSSQTHLHKYLVVYLGGADLKGDYNALSVCPQYHLMKDATAFHTELLKATQSMSVKKRSQACHDSCSPL
# B5: Myc-tagged mouse IL-17RB point mutant I339A (receptor, UniProt Q9JIP3 18-499, looked up)
# chain: REPTIQCGSETGPSPEWMVQHTLTPGDLRDLQVELVKTSVAAEEFSILMNISWILRADASIRLLKATKICVSGKNNMNSYSCVRCNYTEAFQSQTRPSGGKWTFSYVGFPVELSTLYLISAHNIPNANMNEDSPSLSVNFTSPGCLNHVMKYKKQCTEAGSLWDPDITACKKNEKMVEVNFTTNPLGNRYTILIQRDTTLGFSRVLENKLMRTSVAIPVTEESEGAVVQLTPYLHTCGNDCIRREGTVVLCSETSAPIPPDDNRRMLGGWLPLFLVLLVAVWVLAAGIYLTWRQGRSTKTSFPISTMLLPLIKVLVVYPSEACFHHTVCRFTDFLQNYCRSEVILEKWQKKKIAEMGPVQWLTTQKQAADKVVFLLPSDVPTLCDSACGHNEGSARENSQDLFPLAFNLFCSDFSSQTHLHKYLVVYLGGADLKGDYNALSVCPQYHLMKDATAFHTELLKATQSMSVKKRSQACHDSCSPL
# B6: Myc-tagged mouse IL-17RB point mutant E409R (receptor, UniProt Q9JIP3 18-499, looked up)
# chain: REPTIQCGSETGPSPEWMVQHTLTPGDLRDLQVELVKTSVAAEEFSILMNISWILRADASIRLLKATKICVSGKNNMNSYSCVRCNYTEAFQSQTRPSGGKWTFSYVGFPVELSTLYLISAHNIPNANMNEDSPSLSVNFTSPGCLNHVMKYKKQCTEAGSLWDPDITACKKNEKMVEVNFTTNPLGNRYTILIQRDTTLGFSRVLENKLMRTSVAIPVTEESEGAVVQLTPYLHTCGNDCIRREGTVVLCSETSAPIPPDDNRRMLGGWLPLFLVLLVAVWVLAAGIYLTWRQGRSTKTSFPISTMLLPLIKVLVVYPSEICFHHTVCRFTDFLQNYCRSEVILEKWQKKKIAEMGPVQWLTTQKQAADKVVFLLPSDVPTLCDSACGHNRGSARENSQDLFPLAFNLFCSDFSSQTHLHKYLVVYLGGADLKGDYNALSVCPQYHLMKDATAFHTELLKATQSMSVKKRSQACHDSCSPL
# B7: Myc-tagged mouse IL-17RB point mutant G410D (receptor, UniProt Q9JIP3 18-499, looked up)
# chain: REPTIQCGSETGPSPEWMVQHTLTPGDLRDLQVELVKTSVAAEEFSILMNISWILRADASIRLLKATKICVSGKNNMNSYSCVRCNYTEAFQSQTRPSGGKWTFSYVGFPVELSTLYLISAHNIPNANMNEDSPSLSVNFTSPGCLNHVMKYKKQCTEAGSLWDPDITACKKNEKMVEVNFTTNPLGNRYTILIQRDTTLGFSRVLENKLMRTSVAIPVTEESEGAVVQLTPYLHTCGNDCIRREGTVVLCSETSAPIPPDDNRRMLGGWLPLFLVLLVAVWVLAAGIYLTWRQGRSTKTSFPISTMLLPLIKVLVVYPSEICFHHTVCRFTDFLQNYCRSEVILEKWQKKKIAEMGPVQWLTTQKQAADKVVFLLPSDVPTLCDSACGHNEDSARENSQDLFPLAFNLFCSDFSSQTHLHKYLVVYLGGADLKGDYNALSVCPQYHLMKDATAFHTELLKATQSMSVKKRSQACHDSCSPL
# B8: Myc-tagged mouse IL-17RB point mutant S411R (receptor, UniProt Q9JIP3 18-499, looked up)
# chain: REPTIQCGSETGPSPEWMVQHTLTPGDLRDLQVELVKTSVAAEEFSILMNISWILRADASIRLLKATKICVSGKNNMNSYSCVRCNYTEAFQSQTRPSGGKWTFSYVGFPVELSTLYLISAHNIPNANMNEDSPSLSVNFTSPGCLNHVMKYKKQCTEAGSLWDPDITACKKNEKMVEVNFTTNPLGNRYTILIQRDTTLGFSRVLENKLMRTSVAIPVTEESEGAVVQLTPYLHTCGNDCIRREGTVVLCSETSAPIPPDDNRRMLGGWLPLFLVLLVAVWVLAAGIYLTWRQGRSTKTSFPISTMLLPLIKVLVVYPSEICFHHTVCRFTDFLQNYCRSEVILEKWQKKKIAEMGPVQWLTTQKQAADKVVFLLPSDVPTLCDSACGHNEGRARENSQDLFPLAFNLFCSDFSSQTHLHKYLVVYLGGADLKGDYNALSVCPQYHLMKDATAFHTELLKATQSMSVKKRSQACHDSCSPL
# B9: Myc-tagged mouse IL-17RB point mutant E414R (receptor, UniProt Q9JIP3 18-499, looked up)
# chain: REPTIQCGSETGPSPEWMVQHTLTPGDLRDLQVELVKTSVAAEEFSILMNISWILRADASIRLLKATKICVSGKNNMNSYSCVRCNYTEAFQSQTRPSGGKWTFSYVGFPVELSTLYLISAHNIPNANMNEDSPSLSVNFTSPGCLNHVMKYKKQCTEAGSLWDPDITACKKNEKMVEVNFTTNPLGNRYTILIQRDTTLGFSRVLENKLMRTSVAIPVTEESEGAVVQLTPYLHTCGNDCIRREGTVVLCSETSAPIPPDDNRRMLGGWLPLFLVLLVAVWVLAAGIYLTWRQGRSTKTSFPISTMLLPLIKVLVVYPSEICFHHTVCRFTDFLQNYCRSEVILEKWQKKKIAEMGPVQWLTTQKQAADKVVFLLPSDVPTLCDSACGHNEGSARRNSQDLFPLAFNLFCSDFSSQTHLHKYLVVYLGGADLKGDYNALSVCPQYHLMKDATAFHTELLKATQSMSVKKRSQACHDSCSPL
# B10: Myc-tagged mouse IL-17RB point mutant N415D (receptor, UniProt Q9JIP3 18-499, looked up)
# chain: REPTIQCGSETGPSPEWMVQHTLTPGDLRDLQVELVKTSVAAEEFSILMNISWILRADASIRLLKATKICVSGKNNMNSYSCVRCNYTEAFQSQTRPSGGKWTFSYVGFPVELSTLYLISAHNIPNANMNEDSPSLSVNFTSPGCLNHVMKYKKQCTEAGSLWDPDITACKKNEKMVEVNFTTNPLGNRYTILIQRDTTLGFSRVLENKLMRTSVAIPVTEESEGAVVQLTPYLHTCGNDCIRREGTVVLCSETSAPIPPDDNRRMLGGWLPLFLVLLVAVWVLAAGIYLTWRQGRSTKTSFPISTMLLPLIKVLVVYPSEICFHHTVCRFTDFLQNYCRSEVILEKWQKKKIAEMGPVQWLTTQKQAADKVVFLLPSDVPTLCDSACGHNEGSAREDSQDLFPLAFNLFCSDFSSQTHLHKYLVVYLGGADLKGDYNALSVCPQYHLMKDATAFHTELLKATQSMSVKKRSQACHDSCSPL
# B11: Myc-tagged mouse IL-17RB point mutant S416R (receptor, UniProt Q9JIP3 18-499, looked up)
# chain: REPTIQCGSETGPSPEWMVQHTLTPGDLRDLQVELVKTSVAAEEFSILMNISWILRADASIRLLKATKICVSGKNNMNSYSCVRCNYTEAFQSQTRPSGGKWTFSYVGFPVELSTLYLISAHNIPNANMNEDSPSLSVNFTSPGCLNHVMKYKKQCTEAGSLWDPDITACKKNEKMVEVNFTTNPLGNRYTILIQRDTTLGFSRVLENKLMRTSVAIPVTEESEGAVVQLTPYLHTCGNDCIRREGTVVLCSETSAPIPPDDNRRMLGGWLPLFLVLLVAVWVLAAGIYLTWRQGRSTKTSFPISTMLLPLIKVLVVYPSEICFHHTVCRFTDFLQNYCRSEVILEKWQKKKIAEMGPVQWLTTQKQAADKVVFLLPSDVPTLCDSACGHNEGSARENRQDLFPLAFNLFCSDFSSQTHLHKYLVVYLGGADLKGDYNALSVCPQYHLMKDATAFHTELLKATQSMSVKKRSQACHDSCSPL
# Biological target: T1, Act1 in IL-17RB-deficient MEFs reconstituted with Myc-tagged IL-17RB (mouse (cells are mouse embryonic fibroblasts))
# Experiment: co-immunoprecipitation in reconstituted IL-17RB-deficient MEFs (IP anti-Myc)
row,Binder,binding
1,B1,binds
2,B2,binds
3,B3,binds
4,B4,binds
5,B5,binds
6,B6,binds
7,B7,binds
8,B8,binds
9,B9,binds
10,B10,binds
11,B11,binds
